Source: the supplement of paper PMC9233669
Variants at the floor of the assay are shown more often than the library holds them.

Tests used:
biotinyl-Phe-oxazolone = assay: self-aminoacylation, catalytic enhancement (BFO) (fold over background); higher = more active; k-Seq, kA / k0A0; sequences stand for … in GGGAAUGGAUCCACAUCUACGAAUUC…UUCACUGCAGACUUGACGAAGCUG
How it was run: (§1)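 Working in 50 μL HEPES/NaCl/KCl/MgCl2/CaCl2 buffer with 5% acetonitrile at pH 6.9–7.0, mutagenized RNA pools (0.43 μM; 21-nt variable region) were reacted with 2–1250 μM of each biotinyl-aminoacyl-oxazolone for 90 minutes at room temperature. Streptavidin capture followed, with quantification by triplicate qPCR and Illumina sequencing. Catalytic enhancement is reported as median kA over the uncatalyzed rate, the low-activity peak of a bimodal Gaussian fit to the data.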

biotinyl-Val-oxazolone = assay: self-aminoacylation, catalytic enhancement (BVO) (fold over background); higher = more active; k-Seq, kA / k0A0; sequences stand for … in GGGAAUGGAUCCACAUCUACGAAUUC…UUCACUGCAGACUUGACGAAGCUG
How it was run: as §1

biotinyl-Ile-oxazolone = assay: self-aminoacylation, catalytic enhancement (BIO) (fold over background); higher = more active; k-Seq, kA / k0A0; sequences stand for … in GGGAAUGGAUCCACAUCUACGAAUUC…UUCACUGCAGACUUGACGAAGCUG
How it was run: as §1

biotinyl-Met-oxazolone = assay: self-aminoacylation, catalytic enhancement (BMO) (fold over background); higher = more active; k-Seq, kA / k0A0; sequences stand for … in GGGAAUGGAUCCACAUCUACGAAUUC…UUCACUGCAGACUUGACGAAGCUG
How it was run: as §1

biotinyl-Leu-oxazolone = assay: self-aminoacylation, catalytic enhancement (BLO) (fold over background); higher = more active; k-Seq, kA / k0A0; sequences stand for … in GGGAAUGGAUCCACAUCUACGAAUUC…UUCACUGCAGACUUGACGAAGCUG
How it was run: as §1

biotinyl-Trp-oxazolone = assay: self-aminoacylation, catalytic enhancement (BWO) (fold over background); higher = more active; k-Seq, kA / k0A0; sequences stand for … in GGGAAUGGAUCCACAUCUACGAAUUC…UUCACUGCAGACUUGACGAAGCUG
How it was run: as §1

AAGUGUGCUAAUAGUCGCAGG [Fam3.1 aminoacylation ribozyme variant]
self-aminoacylation (biotinyl-Phe-oxazolone): 1.68
self-aminoacylation (biotinyl-Val-oxazolone): 1.6
self-aminoacylation (biotinyl-Ile-oxazolone): 1.92
self-aminoacylation (biotinyl-Met-oxazolone): 1.94
self-aminoacylation (biotinyl-Leu-oxazolone): 1.98

AAGUUUGCUAAUAUUCCCAAG [Fam3.1 aminoacylation ribozyme variant]
self-aminoacylation (biotinyl-Phe-oxazolone): 0.7
self-aminoacylation (biotinyl-Val-oxazolone): 1.26
self-aminoacylation (biotinyl-Ile-oxazolone): 1.43
self-aminoacylation (biotinyl-Met-oxazolone): 1.44
self-aminoacylation (biotinyl-Leu-oxazolone): 1.21

AUGACCCUGGUCAUCGAGUCA [Fam2.1 aminoacylation ribozyme variant]
self-aminoacylation (biotinyl-Phe-oxazolone): 1.21
self-aminoacylation (biotinyl-Val-oxazolone): 1.13
self-aminoacylation (biotinyl-Ile-oxazolone): 1.17
self-aminoacylation (biotinyl-Met-oxazolone): 1.35
self-aminoacylation (biotinyl-Leu-oxazolone): 1.45

AUUCCCCUGGUCAUCGAGUGG [Fam2.1 aminoacylation ribozyme variant]
self-aminoacylation (biotinyl-Phe-oxazolone): 1.69

CCACACGUCAAGCAAUCCGUC [Fam1B.1 aminoacylation ribozyme variant]
self-aminoacylation (biotinyl-Phe-oxazolone): 0.916
self-aminoacylation (biotinyl-Ile-oxazolone): 1.51
self-aminoacylation (biotinyl-Met-oxazolone): 1.15
self-aminoacylation (biotinyl-Leu-oxazolone): 1.34

CCACAUUUCAAGCAAUCGGUC [Fam1B.1 aminoacylation ribozyme variant]
self-aminoacylation (biotinyl-Trp-oxazolone): 1.88
self-aminoacylation (biotinyl-Val-oxazolone): 1.32
self-aminoacylation (biotinyl-Ile-oxazolone): 1.26
self-aminoacylation (biotinyl-Met-oxazolone): 1.03
self-aminoacylation (biotinyl-Leu-oxazolone): 1.07

CCUCACUUCAAGCAAUCGGAC [Fam1B.1 aminoacylation ribozyme variant]
self-aminoacylation (biotinyl-Trp-oxazolone): 1.4
self-aminoacylation (biotinyl-Val-oxazolone): 0.941
self-aminoacylation (biotinyl-Ile-oxazolone): 0.979
self-aminoacylation (biotinyl-Met-oxazolone): 0.732
self-aminoacylation (biotinyl-Leu-oxazolone): 0.832

CCUCACUUCAAGGAAUCGGUC [Fam1B.1 aminoacylation ribozyme variant]
self-aminoacylation (biotinyl-Trp-oxazolone): 4.27
self-aminoacylation (biotinyl-Val-oxazolone): 0.869
self-aminoacylation (biotinyl-Ile-oxazolone): 0.76
self-aminoacylation (biotinyl-Met-oxazolone): 0.946
self-aminoacylation (biotinyl-Leu-oxazolone): 0.936

CUAAUUCAAAUAAUCGGUCUG [Fam1A.1 aminoacylation ribozyme variant]
self-aminoacylation (biotinyl-Trp-oxazolone): 1.76
self-aminoacylation (biotinyl-Val-oxazolone): 0.749
self-aminoacylation (biotinyl-Ile-oxazolone): 0.803
self-aminoacylation (biotinyl-Met-oxazolone): 0.7
self-aminoacylation (biotinyl-Leu-oxazolone): 0.733

CUACAGUUCAAGCAAUCGGUC [Fam1B.1 aminoacylation ribozyme variant]
self-aminoacylation (biotinyl-Trp-oxazolone): 2.96
self-aminoacylation (biotinyl-Val-oxazolone): 0.975
self-aminoacylation (biotinyl-Ile-oxazolone): 1.02
self-aminoacylation (biotinyl-Met-oxazolone): 0.989
self-aminoacylation (biotinyl-Leu-oxazolone): 1.07

CUACAUCAACCAAUCGGUCUG [Fam1A.1 aminoacylation ribozyme variant]
self-aminoacylation (biotinyl-Trp-oxazolone): 0.796
self-aminoacylation (biotinyl-Val-oxazolone): 0.781
self-aminoacylation (biotinyl-Ile-oxazolone): 0.643
self-aminoacylation (biotinyl-Met-oxazolone): 0.748
self-aminoacylation (biotinyl-Leu-oxazolone): 0.554

CUACCUCAAACAAUCGCUCUG [Fam1A.1 aminoacylation ribozyme variant]
self-aminoacylation (biotinyl-Trp-oxazolone): 1.83
self-aminoacylation (biotinyl-Val-oxazolone): 1.17
self-aminoacylation (biotinyl-Ile-oxazolone): 0.818
self-aminoacylation (biotinyl-Met-oxazolone): 0.85
self-aminoacylation (biotinyl-Leu-oxazolone): 1.27

CUACUCCAAACAAGCGGUCUG [Fam1A.1 aminoacylation ribozyme variant]
self-aminoacylation (biotinyl-Trp-oxazolone): 0.584
self-aminoacylation (biotinyl-Val-oxazolone): 1.14
self-aminoacylation (biotinyl-Ile-oxazolone): 1.2
self-aminoacylation (biotinyl-Met-oxazolone): 1.13
self-aminoacylation (biotinyl-Leu-oxazolone): 0.802
